PubChem BioAssay AID1224826 – NIAID – 2016

Test: 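Knock-downs that raise or lower Tnf reporter signal after endotoxin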 (primary screen)
Cell system: RAW264.7 G9 macrophages from mouse bearing reporters for p65 (GFP) and the Tnf promoter (mCherry)
Reagents: siRNA pool against mouse genes, 100 nM
Time to read-out: 16 h of LPS stimulation, after 2 days of siRNA transfection
Conditions: bacterial lipopolysaccharide (Salmonella minnesota R595), 10 ng/ml
Measured: 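Imaged Tnf reporter mCherry in nuclei, minus background, normalised per plate to the median and expressed as robust z-scores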
Reading the numbers: Tnf reporter robust z-score: higher = stronger Tnf promoter reporter signal after LPS
Call rule: 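Called active when robust z-score is at most -1.3, matching the median of the Tlr4 knock-down control, or over 3; control wells and wells with under 50 cells never active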
Calls: active = Tnf reporter clearly lowered or raised; inactive = no clear change in Tnf reporter
The deposit covers about 17,000 reagents; shown is an unselected part. Of all reagents, about 1,110 (6.6%) got an active call. 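Active means lowered or raised reporter signal; replicate intensities are raw and not normalised per plate.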 A number with no mark means an inactive call. Reagents against one gene are numbered here. Not all columns of the deposit are shown.

gene knocked down | pool no. | Tnf reporter robust z-score | fewer than 50 cells in well
Igfbp3 (GeneID 16009) | 1 | – | fewer than 50 cells per well; well left out of calls
Or13p10 (GeneID 18363) | 1 | -0.97 | enough cells in well
Pbsn (GeneID 54192) | 1 | 1.63 | enough cells in well
Zbbx (GeneID 213234) | 1 | 0.78 | enough cells in well
Btbd1 (GeneID 83962) | 1 | -0.01 | enough cells in well
Oser1 (GeneID 66680) | 1 | – | fewer than 50 cells per well; well left out of calls
Mmrn1 (GeneID 70945) | 1 | -0.03 | enough cells in well
Pigt (GeneID 78928) | 1 | -1.01 | enough cells in well
Txndc5 (GeneID 105245) | 1 | 0.75 | enough cells in well
Zbtb17 (GeneID 22642) | 1 | -0.39 | enough cells in well
Magix (GeneID 54634) | 1 | -0.15 | enough cells in well
Ndufa9 (GeneID 66108) | 1 | -1.51 (active) | enough cells in well
Rcor1 (GeneID 217864) | 1 | -0.14 | enough cells in well
Trpa1 (GeneID 277328) | 1 | 0.28 | enough cells in well
Miip (GeneID 28010) | 1 | -0.73 | enough cells in well
Csmd1 (GeneID 94109) | 1 | -0.55 | enough cells in well
Rps15a (GeneID 267019) | 1 | -1.61 (active) | enough cells in well
Or4c101 (GeneID 258921) | 1 | -0.07 | enough cells in well
Tnfrsf21 (GeneID 94185) | 1 | -1.29 | enough cells in well
Rapgef2 (GeneID 76089) | 1 | -0.98 | enough cells in well
1810030O07Rik (GeneID 69155) | 1 | -0.24 | enough cells in well
Vipas39 (GeneID 104799) | 1 | -0.82 | enough cells in well
Pccb (GeneID 66904) | 1 | -0.12 | enough cells in well
Vmn1r215 (GeneID 171253) | 1 | -0.24 | enough cells in well
Pten (GeneID 19211) | 1 | 0.22 | enough cells in well
Pten (GeneID 19211) | 2 | -1.2 | enough cells in well
Dync2i1 (GeneID 217935) | 1 | 0.69 | enough cells in well
Rdh16 (GeneID 19683) | 1 | 0.36 | enough cells in well
Fcho2 (GeneID 218503) | 1 | 0.38 | enough cells in well
Apaf1 (GeneID 11783) | 1 | -0.17 | enough cells in well
Or2d4 (GeneID 258594) | 1 | 2.7 | enough cells in well
Slc45a3 (GeneID 212980) | 1 | – | fewer than 50 cells per well; well left out of calls
Slc35h1 (GeneID 228875) | 1 | – | fewer than 50 cells per well; well left out of calls
3110070M22Rik (GeneID 67304) | 1 | – | fewer than 50 cells per well; well left out of calls
Slc13a4 (GeneID 243755) | 1 | -0.28 | enough cells in well
Armcx1 (GeneID 78248) | 1 | 0.65 | enough cells in well
Rab37 (GeneID 58222) | 1 | -0.35 | enough cells in well
Ears2 (GeneID 67417) | 1 | – | fewer than 50 cells per well; well left out of calls
Anp32a (GeneID 11737) | 1 | -0.78 | enough cells in well
Klf5 (GeneID 12224) | 1 | -0.65 | enough cells in well
Pcbp4 (GeneID 59092) | 1 | -0.08 | enough cells in well
Gabrq (GeneID 57249) | 1 | 0.89 | enough cells in well
Pias1 (GeneID 56469) | 1 | -0.42 | enough cells in well
Paqr6 (GeneID 68957) | 1 | 3.02 (active) | enough cells in well
Ccz1 (GeneID 231874) | 1 | -0.51 | enough cells in well
Immp2l (GeneID 93757) | 1 | 1.6 | enough cells in well
Slc6a7 (GeneID 240332) | 1 | -1.5 (active) | enough cells in well
Prox2 (GeneID 73422) | 1 | 0.67 | enough cells in well
Dock8 (GeneID 76088) | 1 | – | fewer than 50 cells per well; well left out of calls
Dock8 (GeneID 76088) | 2 | -0.06 | enough cells in well
4833414E09Rik (GeneID 71633) | 1 | – | fewer than 50 cells per well; well left out of calls
Map10 (GeneID 74393) | 1 | -0.28 | enough cells in well
Pck1 (GeneID 18534) | 1 | 1.53 | enough cells in well
Or8g53 (GeneID 258605) | 1 | – | fewer than 50 cells per well; well left out of calls
Hjv (GeneID 69585) | 1 | 2.01 | enough cells in well
Kif2c (GeneID 73804) | 1 | 0.74 | enough cells in well
Angpt4 (GeneID 11602) | 1 | 0.85 | enough cells in well
Prl3a1 (GeneID 67000) | 1 | 0.42 | enough cells in well
Tmed1 (GeneID 17083) | 1 | -0.92 | enough cells in well
Tex11 (GeneID 83558) | 1 | 1.17 | enough cells in well
Or6c217 (GeneID 258665) | 1 | – | fewer than 50 cells per well; well left out of calls
Eid3 (GeneID 66341) | 1 | 4.26 (active) | enough cells in well
Cyth3 (GeneID 19159) | 1 | -1.16 | enough cells in well
Apol11b (GeneID 328563) | 1 | 0.01 | enough cells in well
E230025N22Rik (GeneID 240216) | 1 | 0.92 | enough cells in well
Atpaf2 (GeneID 246782) | 1 | -0.82 | enough cells in well
Trhr (GeneID 22045) | 1 | 0.51 | enough cells in well
Dagla (GeneID 269060) | 1 | -0.68 | enough cells in well
Ogt (GeneID 108155) | 1 | -1.48 (active) | enough cells in well
Rab29 (GeneID 226422) | 1 | 0.1 | enough cells in well
Hpgd (GeneID 15446) | 1 | 0.58 | enough cells in well
Prpf18 (GeneID 67229) | 1 | 0.05 | enough cells in well
Cd8b1 (GeneID 12526) | 1 | -0.18 | enough cells in well
Igfals (GeneID 16005) | 1 | 0.27 | enough cells in well
Pcsk4 (GeneID 18551) | 1 | – | fewer than 50 cells per well; well left out of calls

Part of the list above, set out differently:
gene knocked down	pool no.	Tnf reporter robust z-score	fewer than 50 cells in well
Dock8 (GeneID 76088)	2	-0.06	enough cells in well
4833414E09Rik (GeneID 71633)	1		fewer than 50 cells per well; well left out of calls
Map10 (GeneID 74393)	1	-0.28	enough cells in well
Pck1 (GeneID 18534)	1	1.53	enough cells in well
Or8g53 (GeneID 258605)	1		fewer than 50 cells per well; well left out of calls
Hjv (GeneID 69585)	1	2.01	enough cells in well
Kif2c (GeneID 73804)	1	0.74	enough cells in well
Angpt4 (GeneID 11602)	1	0.85	enough cells in well
Prl3a1 (GeneID 67000)	1	0.42	enough cells in well
Tmed1 (GeneID 17083)	1	-0.92	enough cells in well
Tex11 (GeneID 83558)	1	1.17	enough cells in well
Or6c217 (GeneID 258665)	1		fewer than 50 cells per well; well left out of calls
